For at least one compound, name, drawing or mass did not settle the structure.
Tested on: R-loops foci in HeLa cell co-expressing RHINO and inducible RNase H1
Assay: Quantification of RHINO R-loops foci upon induction of RNase H1-GR with TA
Format: cell-based
Conditions: TA added to cells expressing RNase H1-GR; within one hour of treatment

CC1(C)O[C@@H]2C[C@H]3[C@@H]4CCC5=CC(=O)C=C[C@]5(C)[C@@]4(F)[C@@H](O)C[C@]3(C)[C@]2(C(=O)CO)O1 [triamcinolone acetonide]
number of R-loops foci: significantly reduced

Source: patent US20260234584A1, “R-LOOP SENSOR” (FUNDAÇÃO GIMM - GULBENKIAN INSTITUTE FOR MOLECULAR MEDICINE, priority 2023, published 2026)
